Experimental findings from the supplement of paper PMC11732987, “Enantioselective OTUD7B fragment discovery through chemoproteomics screening and high-throughput optimisation” (Communications Chemistry, 2025) are described below.

Sequences of proteins named here, by UniProt entry; tags and fusion partners are left off. A change or cut given only in a name is not applied to a line headed by its entry. Residues count along the entry.
UniProt Q8TCF1: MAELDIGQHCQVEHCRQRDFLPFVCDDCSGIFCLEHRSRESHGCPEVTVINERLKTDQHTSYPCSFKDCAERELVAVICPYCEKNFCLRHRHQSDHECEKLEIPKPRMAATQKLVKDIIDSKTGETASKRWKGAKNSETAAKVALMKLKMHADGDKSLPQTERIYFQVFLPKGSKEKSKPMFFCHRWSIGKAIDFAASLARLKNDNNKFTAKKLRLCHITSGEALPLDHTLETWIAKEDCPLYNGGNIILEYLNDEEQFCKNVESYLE
UniProt Q8N1G0: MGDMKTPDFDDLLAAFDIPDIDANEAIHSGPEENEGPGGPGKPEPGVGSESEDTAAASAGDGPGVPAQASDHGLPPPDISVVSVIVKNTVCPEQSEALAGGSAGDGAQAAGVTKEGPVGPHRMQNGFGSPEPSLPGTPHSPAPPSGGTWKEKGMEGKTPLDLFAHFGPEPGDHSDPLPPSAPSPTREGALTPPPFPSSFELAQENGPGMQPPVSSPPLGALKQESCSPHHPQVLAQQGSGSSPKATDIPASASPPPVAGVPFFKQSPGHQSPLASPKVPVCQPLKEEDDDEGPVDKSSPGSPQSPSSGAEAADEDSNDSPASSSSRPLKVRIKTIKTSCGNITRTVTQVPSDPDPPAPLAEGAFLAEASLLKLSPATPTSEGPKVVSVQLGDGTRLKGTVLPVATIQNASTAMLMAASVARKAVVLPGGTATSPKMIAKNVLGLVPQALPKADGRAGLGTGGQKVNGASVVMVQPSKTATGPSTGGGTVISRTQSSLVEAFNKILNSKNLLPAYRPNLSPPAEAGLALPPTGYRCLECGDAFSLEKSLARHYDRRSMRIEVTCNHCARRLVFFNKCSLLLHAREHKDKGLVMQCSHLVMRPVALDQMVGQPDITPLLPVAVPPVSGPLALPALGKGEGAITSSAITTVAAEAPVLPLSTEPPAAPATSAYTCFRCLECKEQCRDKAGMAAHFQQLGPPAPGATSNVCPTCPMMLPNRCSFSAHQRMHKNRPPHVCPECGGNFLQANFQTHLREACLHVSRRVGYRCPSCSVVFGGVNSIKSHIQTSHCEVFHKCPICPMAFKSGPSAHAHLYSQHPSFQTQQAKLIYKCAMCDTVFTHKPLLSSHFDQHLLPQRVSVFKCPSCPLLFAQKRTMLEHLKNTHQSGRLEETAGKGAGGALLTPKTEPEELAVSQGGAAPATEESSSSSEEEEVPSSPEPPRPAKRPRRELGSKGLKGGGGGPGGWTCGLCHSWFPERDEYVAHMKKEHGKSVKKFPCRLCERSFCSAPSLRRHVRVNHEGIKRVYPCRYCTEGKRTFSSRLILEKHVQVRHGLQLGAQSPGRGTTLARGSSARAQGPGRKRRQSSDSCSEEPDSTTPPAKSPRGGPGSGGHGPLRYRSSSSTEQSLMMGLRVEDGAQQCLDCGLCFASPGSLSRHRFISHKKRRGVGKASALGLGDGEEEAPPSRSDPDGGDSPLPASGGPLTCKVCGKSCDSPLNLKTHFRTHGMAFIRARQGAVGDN
UniProt O15014: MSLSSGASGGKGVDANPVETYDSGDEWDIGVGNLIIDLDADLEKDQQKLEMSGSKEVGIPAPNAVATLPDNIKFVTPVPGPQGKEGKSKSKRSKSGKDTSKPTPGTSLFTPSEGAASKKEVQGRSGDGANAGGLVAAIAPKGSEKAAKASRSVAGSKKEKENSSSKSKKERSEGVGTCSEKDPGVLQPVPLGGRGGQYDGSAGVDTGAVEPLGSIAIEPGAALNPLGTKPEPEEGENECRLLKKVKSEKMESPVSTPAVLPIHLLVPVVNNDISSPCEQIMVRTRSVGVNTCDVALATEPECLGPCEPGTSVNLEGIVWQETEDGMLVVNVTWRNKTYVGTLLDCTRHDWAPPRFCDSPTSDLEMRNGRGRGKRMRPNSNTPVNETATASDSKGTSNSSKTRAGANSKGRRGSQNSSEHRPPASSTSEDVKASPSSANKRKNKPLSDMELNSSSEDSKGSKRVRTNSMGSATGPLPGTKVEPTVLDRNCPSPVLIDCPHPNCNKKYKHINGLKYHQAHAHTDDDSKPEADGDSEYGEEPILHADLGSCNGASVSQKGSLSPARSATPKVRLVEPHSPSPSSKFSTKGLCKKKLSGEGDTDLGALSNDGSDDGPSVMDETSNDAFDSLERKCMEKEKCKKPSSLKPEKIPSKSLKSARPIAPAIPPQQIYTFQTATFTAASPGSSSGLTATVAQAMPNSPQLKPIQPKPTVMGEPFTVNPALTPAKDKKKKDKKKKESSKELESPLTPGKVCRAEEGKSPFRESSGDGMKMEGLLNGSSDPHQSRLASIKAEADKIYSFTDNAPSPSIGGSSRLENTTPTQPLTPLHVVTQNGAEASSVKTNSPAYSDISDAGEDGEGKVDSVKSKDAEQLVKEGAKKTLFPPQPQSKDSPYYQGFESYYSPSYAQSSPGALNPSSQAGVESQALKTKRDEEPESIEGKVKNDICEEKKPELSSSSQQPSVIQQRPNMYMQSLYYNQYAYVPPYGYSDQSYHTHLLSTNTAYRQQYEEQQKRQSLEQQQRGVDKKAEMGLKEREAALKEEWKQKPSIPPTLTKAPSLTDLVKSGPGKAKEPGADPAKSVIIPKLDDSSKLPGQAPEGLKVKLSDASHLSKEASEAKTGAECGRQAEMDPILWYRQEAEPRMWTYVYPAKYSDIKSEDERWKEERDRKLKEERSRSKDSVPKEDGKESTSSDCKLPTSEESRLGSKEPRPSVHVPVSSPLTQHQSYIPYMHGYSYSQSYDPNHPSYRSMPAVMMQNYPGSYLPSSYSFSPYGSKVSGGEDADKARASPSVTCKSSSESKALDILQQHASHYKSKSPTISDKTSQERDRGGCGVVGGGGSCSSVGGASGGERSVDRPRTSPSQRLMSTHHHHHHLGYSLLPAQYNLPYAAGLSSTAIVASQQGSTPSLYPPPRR
UniProt O43264, 668-687: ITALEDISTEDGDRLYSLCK
UniProt Q9UGR2: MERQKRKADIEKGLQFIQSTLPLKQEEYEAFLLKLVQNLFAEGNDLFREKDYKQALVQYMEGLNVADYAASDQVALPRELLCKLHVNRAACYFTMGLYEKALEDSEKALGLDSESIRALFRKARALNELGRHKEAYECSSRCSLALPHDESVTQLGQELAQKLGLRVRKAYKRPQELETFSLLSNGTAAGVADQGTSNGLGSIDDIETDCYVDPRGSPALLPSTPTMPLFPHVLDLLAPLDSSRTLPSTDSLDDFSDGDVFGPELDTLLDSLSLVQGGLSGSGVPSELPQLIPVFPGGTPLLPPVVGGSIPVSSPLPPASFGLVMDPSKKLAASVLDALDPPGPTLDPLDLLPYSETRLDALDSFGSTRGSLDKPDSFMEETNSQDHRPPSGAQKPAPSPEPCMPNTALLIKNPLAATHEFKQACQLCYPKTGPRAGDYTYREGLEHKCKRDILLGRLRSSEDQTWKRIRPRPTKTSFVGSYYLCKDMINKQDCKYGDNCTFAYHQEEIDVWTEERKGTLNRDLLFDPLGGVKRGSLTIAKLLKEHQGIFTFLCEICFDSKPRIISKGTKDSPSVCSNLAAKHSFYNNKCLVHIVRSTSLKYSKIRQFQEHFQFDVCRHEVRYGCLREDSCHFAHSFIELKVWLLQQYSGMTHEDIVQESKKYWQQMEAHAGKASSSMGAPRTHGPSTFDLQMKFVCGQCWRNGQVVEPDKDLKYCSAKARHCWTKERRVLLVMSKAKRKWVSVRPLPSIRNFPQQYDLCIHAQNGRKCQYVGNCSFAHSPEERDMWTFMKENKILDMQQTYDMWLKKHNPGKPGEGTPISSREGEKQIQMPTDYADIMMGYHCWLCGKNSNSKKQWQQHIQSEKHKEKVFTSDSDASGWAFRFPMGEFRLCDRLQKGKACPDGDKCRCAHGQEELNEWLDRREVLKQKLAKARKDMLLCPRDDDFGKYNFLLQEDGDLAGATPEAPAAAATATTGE
UniProt Q5SVZ6: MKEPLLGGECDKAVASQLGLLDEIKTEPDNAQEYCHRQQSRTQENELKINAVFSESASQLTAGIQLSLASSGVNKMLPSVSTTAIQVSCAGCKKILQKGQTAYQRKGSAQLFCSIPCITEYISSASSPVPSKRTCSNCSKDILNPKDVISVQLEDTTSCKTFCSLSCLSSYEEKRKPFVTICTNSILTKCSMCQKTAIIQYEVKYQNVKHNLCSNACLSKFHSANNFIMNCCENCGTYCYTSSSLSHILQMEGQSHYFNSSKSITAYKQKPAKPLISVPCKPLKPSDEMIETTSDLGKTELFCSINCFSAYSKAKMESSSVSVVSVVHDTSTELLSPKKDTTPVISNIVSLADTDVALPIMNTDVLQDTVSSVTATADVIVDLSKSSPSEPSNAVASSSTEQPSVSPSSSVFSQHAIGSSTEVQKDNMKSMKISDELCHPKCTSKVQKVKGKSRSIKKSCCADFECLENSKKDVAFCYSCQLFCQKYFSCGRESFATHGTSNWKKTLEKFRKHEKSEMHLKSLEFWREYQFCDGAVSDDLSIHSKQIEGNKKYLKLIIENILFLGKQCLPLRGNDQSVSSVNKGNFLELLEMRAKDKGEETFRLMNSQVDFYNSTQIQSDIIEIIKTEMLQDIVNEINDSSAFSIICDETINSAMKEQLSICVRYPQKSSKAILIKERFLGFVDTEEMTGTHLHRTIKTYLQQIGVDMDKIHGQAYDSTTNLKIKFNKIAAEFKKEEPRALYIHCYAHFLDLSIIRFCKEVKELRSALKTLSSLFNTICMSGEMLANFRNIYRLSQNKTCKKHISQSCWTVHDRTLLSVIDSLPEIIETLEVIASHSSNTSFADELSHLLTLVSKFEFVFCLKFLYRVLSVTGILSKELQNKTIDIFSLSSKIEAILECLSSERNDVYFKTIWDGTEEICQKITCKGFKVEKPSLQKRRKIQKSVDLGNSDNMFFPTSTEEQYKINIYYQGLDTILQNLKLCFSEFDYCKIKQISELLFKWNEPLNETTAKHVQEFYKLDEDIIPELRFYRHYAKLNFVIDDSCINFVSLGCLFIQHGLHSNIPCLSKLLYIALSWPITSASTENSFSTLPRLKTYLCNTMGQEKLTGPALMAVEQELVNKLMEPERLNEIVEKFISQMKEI
UniProt Q8IYH5, 642-662: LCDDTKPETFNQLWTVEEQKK
UniProt Q9Y5A6: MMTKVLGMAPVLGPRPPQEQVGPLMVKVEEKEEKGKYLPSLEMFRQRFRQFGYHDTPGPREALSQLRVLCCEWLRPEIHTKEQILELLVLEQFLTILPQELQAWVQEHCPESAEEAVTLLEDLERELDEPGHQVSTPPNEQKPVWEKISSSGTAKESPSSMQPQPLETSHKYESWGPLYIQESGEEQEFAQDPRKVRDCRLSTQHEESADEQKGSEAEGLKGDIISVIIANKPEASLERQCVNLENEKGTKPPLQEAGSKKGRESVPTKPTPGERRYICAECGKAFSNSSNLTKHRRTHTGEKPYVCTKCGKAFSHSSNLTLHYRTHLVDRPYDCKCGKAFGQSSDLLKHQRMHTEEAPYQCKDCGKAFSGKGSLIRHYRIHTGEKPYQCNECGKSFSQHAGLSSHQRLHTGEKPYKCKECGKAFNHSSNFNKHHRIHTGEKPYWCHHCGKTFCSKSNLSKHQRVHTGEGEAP
UniProt Q96KM6: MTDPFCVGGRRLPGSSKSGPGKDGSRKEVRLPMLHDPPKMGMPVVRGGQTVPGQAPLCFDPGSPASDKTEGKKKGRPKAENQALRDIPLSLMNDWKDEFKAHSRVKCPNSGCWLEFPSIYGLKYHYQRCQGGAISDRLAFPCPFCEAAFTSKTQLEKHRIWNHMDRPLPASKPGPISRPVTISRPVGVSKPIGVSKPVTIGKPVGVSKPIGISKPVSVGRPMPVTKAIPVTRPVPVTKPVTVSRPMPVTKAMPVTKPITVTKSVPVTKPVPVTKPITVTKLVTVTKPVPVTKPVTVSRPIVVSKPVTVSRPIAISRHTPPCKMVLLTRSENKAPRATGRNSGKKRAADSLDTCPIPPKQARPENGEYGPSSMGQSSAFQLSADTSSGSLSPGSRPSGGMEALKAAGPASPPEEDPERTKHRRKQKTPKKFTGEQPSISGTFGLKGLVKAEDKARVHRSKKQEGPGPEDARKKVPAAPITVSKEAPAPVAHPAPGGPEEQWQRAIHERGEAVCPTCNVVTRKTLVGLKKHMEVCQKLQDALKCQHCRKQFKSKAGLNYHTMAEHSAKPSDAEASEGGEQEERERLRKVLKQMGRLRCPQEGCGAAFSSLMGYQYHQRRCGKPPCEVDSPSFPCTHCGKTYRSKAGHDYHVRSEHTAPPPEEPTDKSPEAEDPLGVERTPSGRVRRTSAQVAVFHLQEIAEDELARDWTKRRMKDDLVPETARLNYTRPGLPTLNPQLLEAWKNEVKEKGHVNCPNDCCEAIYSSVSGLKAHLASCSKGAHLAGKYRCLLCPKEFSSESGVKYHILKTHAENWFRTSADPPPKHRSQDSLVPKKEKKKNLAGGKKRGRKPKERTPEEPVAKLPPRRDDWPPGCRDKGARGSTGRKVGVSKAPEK

The list shows a part of the results. The data scatter; read single values as rough.

Compound in the first experiment: ClCC(=O)N[C@H]1CCCc2ccccc12
Kind of experiment: log2 mean competition ratio of IA-DTB cysteine labelling (DMSO/compound) (log2 ratio); higher = stronger cysteine engagement by compound. The note with it: 50 µM; treatment time: 4 h; cell line lysate: HEK293T. On the procedure: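 IA-DTB competitive cysteine chemoproteomics in HEK293T RIPA lysate. Lysates were treated with compound 29 or 30 at 50 or 200 µM for 4 h, then IA-DTB (500 µM, 1 h), trypsin-digested, NeutrAvidin-enriched and analysed by diaPASEF. Competition ratio = intensity DMSO / intensity compound (n=4 treated, n=64 DMSO); binding: mean log2 CR ≥ 1 and p ≤ 0.05 plus QC filters. Target is the cysteine site.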
With ZNF644 C554 (UniProt Q9H582), the “log2 mean competition ratio” value is -0.187.
Still for that read-out and setting: with ZFAND1 C44 (UniProt Q8TCF1) the figure was -0.369; with ZNF428 C111, -0.133; with ZNF462 C2287, 0.288.
Turning to ZNF512 C540 (UniProt Q96ME7), the “log2 mean competition ratio” value is -0.19.
Still for that read-out and setting: the value for ZC3HAV1 C272 (UniProt Q7Z2W4) was -0.112.
The same measure, in the same setting: with ZNF687 C1003 (UniProt Q8N1G0) the figure was 0.406; with ZFR C525 (UniProt Q96KR1), -0.0284; with ZNF609 C1120 (UniProt O15014), -0.239.
Still for that read-out and setting: with ZW10 C686 (UniProt O43264) the figure was 0.169.
Regarding ZC3H7B C940 (UniProt Q9UGR2), the “log2 mean competition ratio” value is 0.604.
Same read-out and setting: the value for ZMYM1 C532 (UniProt Q5SVZ6) was 0.0223; that for ZNF668 C241 (UniProt Q96K58) was 0.112; that for ZZZ3 C643 (UniProt Q8IYH5) was -0.0431.
Consider ZMYM1 C438 (UniProt Q5SVZ6), for which the “log2 mean competition ratio” value is 0.355.
Same read-out and setting: with ZNF616 C174 the figure was -0.167; with ZNF35 C156, 0.0533; with ZNF687 C718 (UniProt Q8N1G0), 0.394.
Still for that read-out and setting: the value for ZSCAN21 C241 (UniProt Q9Y5A6) was 0.0221; that for ZNF512B C774 (UniProt Q96KM6) was 0.237.

The same experiment, now with this note: 200 µM; treatment time: 4 h; cell line lysate: HEK293T.
With ZNF644 C554 (UniProt Q9H582), the “log2 mean competition ratio” value turned out to be 0.189.
Still for that read-out and setting: with ZFAND1 C44 (UniProt Q8TCF1) the figure was 0.178.
ZNF428 C111: the “log2 mean competition ratio” value is 0.0767.
On the same count and under the same terms, with ZNF462 C2287 the figure was 0.307; with ZNF512 C540 (UniProt Q96ME7), 0.00276; with ZC3HAV1 C272 (UniProt Q7Z2W4), -0.17.
Same read-out and setting: the value for ZNF687 C1003 (UniProt Q8N1G0) was 0.132.
Take ZFR C525 (UniProt Q96KR1): the “log2 mean competition ratio” value is -0.102.
Still for that read-out and setting: with ZNF609 C1120 (UniProt O15014) the figure was 0.0468; with ZW10 C686 (UniProt O43264), -0.0956; with ZC3H7B C940 (UniProt Q9UGR2), 0.321.
Same read-out and setting: the value for ZMYM1 C532 (UniProt Q5SVZ6) was -0.119; that for ZNF668 C241 (UniProt Q96K58) was -0.141.
The same measure, in the same setting: the value for ZZZ3 C643 (UniProt Q8IYH5) was -0.211; that for ZMYM1 C438 (UniProt Q5SVZ6) was 0.0938; that for ZNF616 C174 was -0.135.
In the case of ZNF35 C156, the “log2 mean competition ratio” value turned out to be 0.128.
Same read-out and setting: with ZNF687 C718 (UniProt Q8N1G0) the figure was 0.104.
Still for that read-out and setting: with ZSCAN21 C241 (UniProt Q9Y5A6) the figure was 0.11; with ZNF512B C774 (UniProt Q96KM6), -0.0789.
